{
  "source": "paper PMC10802587",
  "about": "(bioRxiv, 2024)",
  "system": "Dd2-B2 parasites",
  "experiment": "Minimum inoculum of resistance",
  "type": "cell-based, P. falciparum",
  "conditions": "5×EC50, 3.3 × 10^8 parasites per flask, three flasks",
  "data": [
    {"compound": "CCCCCCCCCCCCCCCP(=O)(OCC)Oc1cc(F)cc(F)c1", "note": "(stereo not shown) [Compound 22]", "values": [
      {"measurement": "MIR value (minimum inoculum of resistance)", "result": "1× 10^9"}
    ]}
  ]
}
